The list shows only some results of the screen, not a fair sample: it is rich in T/C values a quarter to a half above the control, in often repeated tests (any T/C) and in doses without a T/C. Further doses and runs are listed elsewhere. T/C is the treated group as % of the vehicle group. Some doses have a count of surviving animals in place of a T/C: the source files T/C as zero there, which appears to mark a toxic dose or a test without result, not a measured value. Some survivor counts are full or nearly so, which does not show that the dose was tolerated: the source hardly ever lists a survival T/C far under the control, and the zero likely stands for such cases as well. Counts of survivors are from the toxicity check (mostly the fifth day) where no day follows; animals may have died later. Schedules are NCI's codes, read here as Q, the interval in days (D) or hours (H), X, the number of doses. Some schedule codes hold Z or #, which are not explained here. For survival time, the PubChem record calls one and a half times the control and up active, and a quarter to a half above the control has no call in these data; cut-offs in other NCI protocols can differ. Some T/C values are followed by the survivors on the day toxicity was checked, most often the fifth; where none is given, no animal had died by that day. Some entries hold several experiments; their values stand side by side, smallest first.
Tested on: L1210 leukemia ip in BDF1 mice, survival T/C
Assay: NCI In Vivo Anticancer Drug Screen. Data for tumor model L1210 Leukemia (intraperitoneal) in B6D2F1 (BDF1) mice
Details: T/C endpoint: mean survival time, higher T/C = longer survival
[1] = dose: 400.0 mg/kg/injection, schedule: Q04DX003 (ip), vehicle: saline with Tween-80
[2] = dose: 400.0 mg/kg/injection, schedule: Q04DX003 (ip), vehicle: Klucel (hydroxypropylcellulose) (HPC)
[3] = dose: 100.0 mg/kg/injection, schedule: Q01DX009 (ip), vehicle: Klucel (hydroxypropylcellulose) (HPC)
[4] = dose: 200.0 mg/kg/injection, schedule: Q04DX003 (ip), vehicle: saline
[5] = dose: 400.0 mg/kg/injection, schedule: Q04DX003 (ip), vehicle: saline
[6] = dose: 400.0 mg/kg/injection, schedule: Q01DX001 (ip), vehicle: saline
[7] = dose: 400.0 mg/kg/injection, schedule: Q01DX009 (ip), vehicle: Klucel (hydroxypropylcellulose) (HPC)
[8] = dose: 900.0 mg/kg/injection, schedule: Q01DX Z (ip), vehicle: other
[9] = dose: 1200.0 mg/kg/injection, schedule: Q01DX Z (ip), vehicle: other
[10] = dose: 400.0 mg/kg/injection, schedule: Q01DX009 (ip), vehicle: saline
[11] = dose: 100.0 mg/kg/injection, schedule: Q01DX009 (ip), vehicle: saline

Which results are given for `CN(C)Cc1cc(C(C)(C)C)c(O)c(C(C)(C)C)c1`?
survivor count (dose: 200.0 mg/kg/injection, schedule: Q04DX003 (ip), vehicle: saline with Tween-80): 2 of 6; survivor count [1]: 0 of 6

How did the survivor count [2] turn out when `Nc1cc(S(=O)O)c2cccnc2c1O` was run?
The survivor count was 5 of 6.

How did the survivor count [3] turn out when `CC(C)=C1C2C=CC1C1C(=O)OC(=O)C21` (stereo unspecified) was run?
The survivor count was 6 of 6.

What about the survivor count (dose: 200.0 mg/kg/injection, schedule: Q01DX001 (ip), vehicle: Klucel (hydroxypropylcellulose) (HPC)) of the same compound?
The survivor count was 3 of 6.

What about the survivor count (dose: 400.0 mg/kg/injection, schedule: Q01DX001 (ip), vehicle: Klucel (hydroxypropylcellulose) (HPC)) of the same compound?
Its survivor count is 0 of 6.

What does the source list for `NNC(=O)CCC(N)C(=O)O` (stereo unspecified)?
survivor count (dose: 129.15 mg/kg/injection, schedule: Q01DX Z (ip), vehicle: carboxymethylcellulose (CMC)): 10 of 10; survivor count (dose: 172.2 mg/kg/injection, schedule: Q01DX Z (ip), vehicle: carboxymethylcellulose (CMC)): 9 of 10; survivor count (dose: 215.25 mg/kg/injection, schedule: Q01DX Z (ip), vehicle: carboxymethylcellulose (CMC)): 7 of 10

`CC1CC(C)(C)[N+](C)=C(CC(C)(C)O)O1` (stereo unspecified) was tested. Which survivor count [4] did it give?
The survivor count was 1 of 6.

And the survivor count [5]?
The survivor count was 0 of 6.

With `O=[N+]([O-])c1ccc(-c2ccc(Br)cc2)cc1` as the compound, how does the survivor count (dose: 400.0 mg/kg/injection, schedule: Q01DX009 (ip), vehicle: saline with Tween-80) read?
Its survivor count is 5 of 6.

What does the source list for `CCOc1cc(N2CCOCC2)c(OCC)cc1N`?
survivor count (dose: 50.0 mg/kg/injection, schedule: Q04DX003 (ip), vehicle: other): 3 of 6; survivor count (dose: 100.0 mg/kg/injection, schedule: Q04DX003 (ip), vehicle: saline): 1 of 6; survivor count [4]: 0 of 6; survivor count [5]: 0 of 6

With `CCn1ccc2c(N)ncnc21` as the compound, how does the survivor count (dose: 100.0 mg/kg/injection, schedule: Q01DX001 (ip), vehicle: saline) read?
Its survivor count is 2 of 4.

What about the survivor count (dose: 200.0 mg/kg/injection, schedule: Q01DX001 (ip), vehicle: saline) of the same compound?
The survivor count was 0 of 4.

And the survivor count [6]?
Its survivor count is 0 of 4.

`CN=NNc1ccc(C)cc1` was tested. Which T/C [3] did it give?
Its T/C is 127 % of control.

What about the survivor count (dose: 100.0 mg/kg/injection, schedule: Q04DX003 (ip), vehicle: Klucel (hydroxypropylcellulose) (HPC)) of the same compound?
Its survivor count is 6 of 6.

What about the survivor count (dose: 200.0 mg/kg/injection, schedule: Q04DX003 (ip), vehicle: Klucel (hydroxypropylcellulose) (HPC)) of the same compound?
Its survivor count is 6 of 6.

And the survivor count [6]?
Its survivor count is 2 of 4.

And the survivor count [7]?
Its survivor count is 0 of 6.

And the survivor count [2]?
The survivor count was 5 of 6.

`CN=C(N)NC` was tested. Which survivor count [1] did it give?
Its survivor count is 5 of 6.

Which results are given for `O=c1[nH]c(=O)n(C2CC(O)C(CO)O2)cc1I` (stereo unspecified)?
T/C (dose: 125.0 mg/kg/injection, schedule: Q#A X Z (ip), vehicle: other): 131 % of control; T/C (dose: 250.0 mg/kg/injection, schedule: Q#A X Z (ip), vehicle: other): 133 % of control; T/C (dose: 300.0 mg/kg/injection, schedule: Q01DX009 (ip), vehicle: carboxymethylcellulose (CMC)): 135 % of control [8 of 10 alive]; T/C (dose: 300.0 mg/kg/injection, schedule: Q## X003 (ip), vehicle: carboxymethylcellulose (CMC)): 141 % of control; T/C (dose: 400.0 mg/kg/injection, schedule: Q01DX Z (ip), vehicle: other): 126 % of control; T/C (dose: 400.0 mg/kg/injection, schedule: Q01DX Z (ip), vehicle: saline): 127 % of control; T/C (dose: 600.0 mg/kg/injection, schedule: Q01DX009 (ip), vehicle: saline): 131 % of control; T/C (dose: 600.0 mg/kg/injection, schedule: Q01DX Z (ip), vehicle: other): 139 and 145 % of control; T/C (dose: 600.0 mg/kg/injection, schedule: Q01DX Z (ip), vehicle: saline): 136 and 137 % of control [6 of 7 alive]; T/C [8]: 141 % of control; survivor count [8]: 0 of 6; T/C (dose: 1000.0 mg/kg/injection, schedule: Q01DX010 (ip), vehicle: saline): 126 % of control; T/C (dose: 1000.0 mg/kg/injection, schedule: Q01DX Z (ip), vehicle: other): 127 % of control; survivor count (dose: 1200.0 mg/kg/injection, schedule: Q01DX005 (ip), vehicle: carboxymethylcellulose (CMC)): 8 of 10; survivor count (dose: 1200.0 mg/kg/injection, schedule: Q01DX009 (ip), vehicle: carboxymethylcellulose (CMC)): 9 of 10; T/C (dose: 1200.0 mg/kg/injection, schedule: Q01DX009 (ip), vehicle: saline): 137 % of control; T/C [9]: 130 % of control; survivor count [9]: 0 of 6; survivor count (dose: 1800.0 mg/kg/injection, schedule: Q01DX Z (ip), vehicle: other): 0 of 6; T/C (dose: 2000.0 mg/kg/injection, schedule: Q01DX Z (ip), vehicle: other): 143 % of control; survivor count (dose: 2400.0 mg/kg/injection, schedule: Q01DX005 (ip), vehicle: carboxymethylcellulose (CMC)): 5 of 10; T/C (dose: 2400.0 mg/kg/injection, schedule: Q## X024 (ip), vehicle: carboxymethylcellulose (CMC)): 134 % of control [9 of 10 alive]; survivor count (dose: 2500.0 mg/kg/injection, schedule: Q01DX Z (ip), vehicle: other): 0 of 6

`Cc1c(-c2ccc(Cl)cc2)nc2cc(Cl)ccc2c1C(=O)O` was tested. Which survivor count [10] did it give?
Its survivor count is 1 of 3.

`c1ccc2cc(B(c3cccc4ccccc34)c3cccc4ccccc34)ccc2c1` was tested. Which survivor count (dose: 100.0 mg/kg/injection, schedule: Q04DX002 (ip), vehicle: saline with Tween-80) did it give?
Its survivor count is 1 of 3.

And the survivor count (dose: 200.0 mg/kg/injection, schedule: Q04DX002 (ip), vehicle: saline with Tween-80)?
The survivor count was 1 of 3.

And the survivor count (dose: 400.0 mg/kg/injection, schedule: Q04DX002 (ip), vehicle: saline with Tween-80)?
Its survivor count is 0 of 3.

How did the survivor count [11] turn out when `COc1ccc(/C=C/[N+](=O)[O-])cc1O` was run?
Its survivor count is 3 of 6.

And the survivor count [5]?
The survivor count was 0 of 6.

For `CCN(CC)CC(=O)NCC(CCCCN1CCCC1)(c1cccc2ccccc12)C(C)C` (stereo unspecified), which survivor count [11] is on record?
The survivor count was 0 of 6.

What about the survivor count (dose: 200.0 mg/kg/injection, schedule: Q01DX009 (ip), vehicle: saline) of the same compound?
Its survivor count is 0 of 6.

What about the survivor count [10] of the same compound?
Its survivor count is 0 of 6.

For `Cc1ccc(P(=O)(O)O)cc1C`, which survivor count [5] is on record?
Its survivor count is 2 of 6.

`Cc1cccc(C)c1NC(=O)Oc1ccc(F)cc1Cl` was tested. Which survivor count [7] did it give?
Its survivor count is 3 of 6.

With `O=CC(=O)c1ccc(O)cc1` as the compound, how does the survivor count (dose: 200.0 mg/kg/injection, schedule: Q01DX009 (ip), vehicle: saline sonified) read?
The survivor count was 3 of 6.

Which results are given for `CN(C)CCCNc1c2ccc(Cl)cc2nc2ccc(O)cc12`?
survivor count (dose: 50.0 mg/kg/injection, schedule: Q04DX002 (ip), vehicle: saline): 0 of 3; survivor count (dose: 100.0 mg/kg/injection, schedule: Q04DX002 (ip), vehicle: saline): 3 of 3; survivor count (dose: 200.0 mg/kg/injection, schedule: Q04DX002 (ip), vehicle: saline): 0 of 3; survivor count (dose: 400.0 mg/kg/injection, schedule: Q04DX002 (ip), vehicle: saline): 0 of 3

Which survivor count [2] does the source give for `c1ccc(N=Nc2ccc(NC3=NCCO3)cc2)cc1` here?
Its survivor count is 6 of 6.
